{"sequences": {"note": "Amino acid sequences for entries named in this document (tags omitted).", "UniProt P53350, whole entry, looked up": "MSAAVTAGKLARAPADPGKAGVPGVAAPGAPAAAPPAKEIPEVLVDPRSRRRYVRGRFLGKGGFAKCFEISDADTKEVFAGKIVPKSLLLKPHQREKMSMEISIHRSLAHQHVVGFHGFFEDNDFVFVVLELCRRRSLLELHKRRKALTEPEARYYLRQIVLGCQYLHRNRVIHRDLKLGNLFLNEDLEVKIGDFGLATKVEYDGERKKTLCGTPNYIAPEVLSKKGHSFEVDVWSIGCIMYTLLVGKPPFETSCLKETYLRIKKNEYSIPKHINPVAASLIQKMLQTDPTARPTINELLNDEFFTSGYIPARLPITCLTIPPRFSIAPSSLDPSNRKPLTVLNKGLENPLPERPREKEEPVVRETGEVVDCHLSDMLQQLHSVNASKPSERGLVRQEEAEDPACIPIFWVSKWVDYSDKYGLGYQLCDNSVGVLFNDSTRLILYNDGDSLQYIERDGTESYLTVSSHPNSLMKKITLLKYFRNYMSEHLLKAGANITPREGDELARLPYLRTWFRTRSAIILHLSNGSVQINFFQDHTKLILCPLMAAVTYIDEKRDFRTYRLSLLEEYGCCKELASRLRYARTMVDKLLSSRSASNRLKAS"}, "source": "PubChem BioAssay AID720504", "about": "(National Center for Advancing Translational Sciences (NCATS), 2013)", "note": "About 10,000 (2.8%) of roughly 360,000 compounds were called active. Inconclusive results, whose numbers are uncertain, are shown with a selection of clear calls. The call rests on the fitted dose curve; in most records, active means well fitted inhibition curve with a large enough effect; inconclusive means small, poorly fitted or top-dose-only effect; inactive means flat fitted curve, though single readings scatter. A potency beside an inconclusive call is a rough fit, not a confirmed value. On the % scale 0 is the no-effect control and ±100 the full control effect; potency means the concentration at half of the fitted maximal effect."}
{"biological_target": "Serine/threonine-protein kinase PLK1 (Homo sapiens) (UniProt P53350)", "assay": "qHTS for Inhibitors of PLK1-PDB (polo-like kinase 1 - polo-box domain): Primary Screen; further: nearly all actives have a fitted effect of over 65% in size; on max response, negative = inhibition: series mostly up to about 57 µM", "conditions": "Plk1 PBD binding of FITC phosphopeptide, fluorescence polarization"}
{"smiles": "Cc1cc(/C=C2\\SC(=S)NC2=O)c(C)n1-c1ccccc1", "Potency": "inconclusive: 18.9 µM [inhibitor, partial curve]"}
{"smiles": "CC1CCCN(C(=O)N2c3ccccc3Sc3ccccc32)C1", "note": "(stereo not given)", "max response, negative = inhibition": "inactive: 1.45%"}
{"smiles": "Cc1ccc2nc(/C(C#N)=C\\c3cc(O)ccc3[N+](=O)[O-])[nH]c2c1", "Potency": "active: 23.8 µM"}
{"smiles": "COc1ccc(/C=N/NC(=O)C(O)(c2ccccc2)c2ccccc2)cc1OC", "Potency": "inconclusive: 42.3 µM [inhibitor, partial curve, poor fit]"}
{"smiles": "CC(=O)C(/C=N/c1cc(-c2ccc(C)cc2)nn1-c1ccccc1)=C(\\C)O", "max response, negative = inhibition": "inactive: -8.11%"}
{"smiles": "CCOc1ccc(S(=O)(=O)N(C(=O)c2ccco2)c2cc3sc(=O)oc3c3ccccc23)cc1", "Potency": "inconclusive: 42.3 µM [inhibitor, partial curve]"}
{"smiles": "CCn1c(SC2CCOC2=O)nnc1-c1ccc(Cl)cc1", "note": "(stereo not given)", "max response, negative = inhibition": "inactive: 2.72%"}
{"smiles": "COc1ccc(C(=O)CSc2nnc(CNC(=O)c3ccc(OC)cc3)n2C)cc1", "max response, negative = inhibition": "inactive: -9.78%"}
{"smiles": "Cc1ccc(NC(=O)c2ccco2)cc1", "max response, negative = inhibition": "inactive: -4.07%"}
{"smiles": "N#CCCn1cc(C(=O)Nc2ccc(C(=O)O)cc2)c(-c2cccc(Br)c2)n1", "max response, negative = inhibition": "inactive: -6.09%"}
{"smiles": "O=C(O)c1ccccc1-c1ccccc1C(=O)Nc1ccc2c(c1)C(O)c1ccccc1-2", "note": "(stereo not given)", "max response, negative = inhibition": "inactive: 0.929%"}
{"smiles": "Cc1ccc2nc(N3C(=O)C(O)=C(C(=O)c4ccc(C)o4)C3c3cccc(O)c3)sc2c1", "note": "(stereo not given)", "Potency": "inconclusive: 26.7 µM [inhibitor, single point]"}
{"smiles": "CCOC(=O)N1CCN(C(=O)Cn2ncc3ccccc32)CC1", "Potency": "active: 29.9 µM"}
{"smiles": "CCNC(=S)NNC(=O)c1ccc(S(=O)(=O)NCc2ccco2)cc1", "Potency": "inconclusive: 26.7 µM [inhibitor, partial curve]"}
{"smiles": "CCOC(=O)c1c(C)[nH]c(C(=O)CN(C)CC(=O)Nc2ccccc2Cl)c1C", "max response, negative = inhibition": "inactive: -3.99%"}
{"smiles": "Cc1cc(Sc2nc(NC(C)C)nc(NC(C)C)n2)nc(Cl)n1", "max response, negative = inhibition": "inactive: -12.2%"}
{"smiles": "COc1ccc(S(=O)(=O)N2CCCN(CC(=O)C(C)(C)C)CC2)cc1", "Potency": "inconclusive: 29.9 µM [inhibitor, single point]"}
{"smiles": "COc1ccc(CCN2C(=O)CN=C2Nc2ccc(F)cc2)cc1OC", "Potency": "inconclusive: 18.9 µM [inhibitor, partial curve]"}
{"smiles": "O=C(Nc1ccc([N+](=O)[O-])cc1)Nc1nc(-c2ccc(Cl)s2)cs1", "max response, negative = inhibition": "inactive: -12.8%"}
{"smiles": "Nc1nonc1-c1nc2ccccc2n1CC(=O)N/N=C/c1ccc(-c2cccc(C(=O)O)c2)o1", "Potency": "inconclusive: 16.8 µM [inhibitor, partial curve]"}
{"smiles": "O=S(=O)(c1ccccc1F)N1CCN(Cc2cc3c(cc2Br)OCCO3)CC1", "max response, negative = inhibition": "inactive: -2.99%"}
{"smiles": "Cc1nc(NC(=O)CSc2nnc(C3CC3)n2C)sc1C", "max response, negative = inhibition": "inactive: 4.77%"}
{"smiles": "COc1ccc(C)cc1NC(=O)C(OC(=O)CNC(=O)c1cccc(F)c1)c1ccccc1", "note": "(stereo not given)", "Potency": "inconclusive: 29.9 µM [inhibitor, partial curve]"}
{"smiles": "C#CCCc1cscc1/C=[N+](\\[O-])c1ccc(C(=O)OCC)cc1", "Potency": "active: 7.52 µM"}
{"smiles": "OC[C@@H]1CN(Cc2ccco2)C[C@H](n2cnc3c(NCc4ccc(F)cc4)ncnc32)O1", "max response, negative = inhibition": "inactive: -2.54%"}
{"smiles": "COc1c(O)ccc2c1CN1CCc3cc4c(cc3C1C2)OCO4", "note": "(stereo not given)", "Potency": "active: 23.8 µM"}
{"smiles": "COC(=O)c1ccc(CSc2ccc3nnc(-c4cccc(F)c4)n3n2)o1", "Potency": "inconclusive: 29.9 µM [inhibitor, partial curve]"}
{"smiles": "Cc1cc(C(C)(C)C)ccc1OCCCCN1CCCC1", "max response, negative = inhibition": "inactive: 2.27%"}
{"smiles": "CN(CC(=O)Nc1ccc(F)cc1)C(=O)c1ccc2ccccc2n1", "max response, negative = inhibition": "inactive: -8.53%"}
{"smiles": "O=C1NN(c2cccc(Br)c2)C(=O)/C1=C/c1cccs1", "Potency": "active: 18.9 µM"}
{"smiles": "COCCNC(=O)c1cc2c(s1)-c1ccc(Cl)cc1SC2", "Potency": "inconclusive: 37.7 µM [inhibitor, single point]"}
{"smiles": "COc1cc(NC(=O)C/C(C)=N/NC(=O)C(=O)NCCO)c(OC)cc1Cl", "Potency": "active: 26.7 µM"}
{"smiles": "COc1cccc(-n2nnnc2SCC(=O)Nc2ccc(NC(C)=O)cc2)c1", "Potency": "active: 23.8 µM"}
{"smiles": "Oc1c(Cl)cc(Cl)c2c1NCCC2", "Potency": "active: 4.74 µM"}
{"smiles": "CC(=O)NS(=O)(=O)c1ccc(Nc2ccc([N+](=O)[O-])c3nonc23)cc1", "max response, negative = inhibition": "inactive: 7.4%"}
{"smiles": "CC(=O)Nc1ccc(C(=O)NCC2CCCCC2)cc1", "max response, negative = inhibition": "inactive: 3.08%"}
{"smiles": "O=C(N/N=C/c1coc2ccc(Cl)cc2c1=O)c1ccncc1", "Potency": "inconclusive: 18.9 µM [inhibitor, partial curve]"}
{"smiles": "O=[N+]([O-])c1ccc2nc(NS(=O)(=O)c3ccc(Cl)cc3)sc2c1", "Potency": "inconclusive: 18.9 µM [inhibitor, partial curve]"}
{"smiles": "COC(=O)c1sc(NC(=O)c2ccc([N+](=O)[O-])o2)c(C#N)c1C", "Potency": "inconclusive: 26.7 µM [inhibitor, partial curve]"}
{"smiles": "CN(C)c1ccc(NC(=O)CSc2nc3ccccc3c(=O)n2C2CCCCC2)cc1", "max response, negative = inhibition": "inactive: 3.66%"}
{"smiles": "CN(CC(=O)Nc1ccccc1C(F)(F)F)C(=O)C1CCN(C(=O)c2ccc(Cl)cc2)CC1", "max response, negative = inhibition": "inactive: -1.63%"}
{"smiles": "C/C(CCc1oc2c(Br)cc(Br)cc2c1-c1ccc(C)o1)=N\\O", "Potency": "inconclusive: 26.7 µM [inhibitor, partial curve]"}
{"smiles": "C/C(=N/NC(=O)CNC(=O)Cc1ccccc1)c1ccco1", "Potency": "inconclusive: 29.9 µM [inhibitor, partial curve]"}
{"smiles": "Cc1ccc(C)c(NC(=O)CN2C(=O)C3CC=CCC3C2=O)c1", "note": "(stereo not given)", "max response, negative = inhibition": "inactive: -10.7%"}
{"smiles": "O=C(CSc1nc2ccccc2s1)N/N=C/c1ccc(C(=O)O)cc1", "max response, negative = inhibition": "inactive: -18.1%"}
{"smiles": "Cc1nc(-c2cccc(N)c2)cs1", "Potency": "inconclusive: 29.9 µM [inhibitor, partial curve]"}
{"smiles": "C/C(=N\\OC(=O)Nc1ccc(Cl)cc1)c1ncc(C(F)(F)F)cc1N1CCOCC1", "Potency": "inconclusive: 29.9 µM [inhibitor, single point]"}
{"smiles": "O=C(Nc1ccc2c(c1)OCO2)Oc1ccccc1", "Potency": "inconclusive: 26.7 µM [inhibitor, single point]"}
{"smiles": "O=C(N/N=C/c1c(O)ccc2ccccc12)Nc1ccccc1", "max response, negative = inhibition": "inactive: -0.084%"}
{"smiles": "CC(C)NC(=S)N/N=C/c1ccc2c(c1)OCCO2", "max response, negative = inhibition": "inconclusive: -9.73% [inhibitor]"}
{"smiles": "COC(=O)CCc1c(COC(C)=O)[nH]c(C(=O)OCc2ccccc2)c1C", "Potency": "inconclusive: 9.47 µM [inhibitor, partial curve]"}
{"smiles": "Cc1ccc(NC(=S)Nc2cccc(S(=O)(=O)Nc3c(C)n(C)n(-c4ccccc4)c3=O)c2)cc1", "Potency": "inconclusive: 26.7 µM [inhibitor, single point]"}
{"smiles": "Cc1cc(C)c(OCC(O)CNC(C)(C)C)c(C)c1", "note": "(stereo not given)", "Potency": "active: 23.8 µM"}
{"smiles": "Cc1cccc(NC(=S)N/N=C/C(C)c2ccccc2)c1C", "note": "(stereo not given)", "Potency": "inconclusive: 29.9 µM [inhibitor, partial curve]"}
{"smiles": "CCc1nnc(NC(=O)c2cccc(S(=O)(=O)N(C)c3ccccc3)c2)s1", "Potency": "inconclusive: 37.7 µM [inhibitor, partial curve]"}
{"smiles": "CC(C)OC(=O)c1nn2c(C(F)(F)F)cc(-c3ccc(Br)o3)nc2c1Br", "max response, negative = inhibition": "inconclusive: -30.5% [inhibitor]"}
{"smiles": "O=C(CN(C(=O)CCC(=O)Nc1ccccn1)c1ccc2c(c1)OCCO2)NCCc1ccccc1", "Potency": "inconclusive: 29.9 µM [inhibitor, partial curve]"}
{"smiles": "CC(=O)Nc1ccc2nc(NC(=O)CS(=O)(=O)c3ccccc3)sc2c1", "Potency": "inconclusive: 21.2 µM [inhibitor, partial curve]"}
{"smiles": "O=c1c2cccnc2n(-c2ccccc2)n1Cc1ccc(Cl)cc1", "Potency": "active: 26.7 µM"}
{"smiles": "O=C(/C=C/c1ccco1)N1CCC(Cc2ccccc2)CC1", "max response, negative = inhibition": "inconclusive: -34.2% [inhibitor]"}
{"smiles": "O=C(O)/C=C\\C(=O)Nc1ccccc1C(=O)NCc1ccccc1", "Potency": "inconclusive: 33.6 µM [inhibitor, single point]"}
{"smiles": "COc1ccc(-c2nc3ccccc3nc2-c2ccccc2)cc1", "Potency": "active: 21.2 µM"}
{"smiles": "CC(C)Cc1nnc(NC(=O)CS(=O)(=O)Cc2ccccc2)s1", "Potency": "active: 23.8 µM"}
{"smiles": "CC(C)c1ccc(C2CC(=O)N3CN(C)CSC3=C2C#N)cc1", "note": "(stereo not given)", "Potency": "active: 4.74 µM"}
{"smiles": "O=C(Nc1cccc(S(=O)(=O)N2CCCC2)c1)c1ccc2c(=O)n3c(nc2c1)CCCCC3", "max response, negative = inhibition": "inactive: -6.32%"}
{"smiles": "COc1ccc(Cn2c(=S)[nH]c3cc(C(=O)N4CCN(c5ccccc5)CC4)ccc3c2=O)cc1", "max response, negative = inhibition": "inactive: -1.1%"}
{"smiles": "Cc1nnc(NC2CCCCC2)[nH]c1=O", "max response, negative = inhibition": "inactive: 1.06%"}
{"smiles": "COc1ccccc1-c1ccc(=O)n(CC(=O)NCc2cccs2)n1", "max response, negative = inhibition": "inconclusive: -31.4% [inhibitor]"}
{"smiles": "O=C(CC1SC(N2CCCC2)=NC1=O)Nc1ccc(C(=O)NCCOc2ccccc2F)cc1", "note": "(stereo not given)", "max response, negative = inhibition": "inactive: -7.61%"}
{"smiles": "COc1ccc(C(=O)/C(=C/c2cccs2)c2nc3ccccc3o2)cc1", "Potency": "active: 26.7 µM"}
{"smiles": "COc1ccc2[nH]c3c(c2c1)CCN1C(=O)C(CC(=O)NCC24CC5CC(CC(C5)C2)C4)C[C@H](C(=O)N2CCOCC2)[C@@]31CCC1CCCC1", "note": "(stereo not given in full)", "Potency": "inconclusive: 21.2 µM [inhibitor, partial curve]"}
{"smiles": "CCOC(=O)Cn1nc2oc(=O)c(CCN3CCN(c4ccccc4OC)CC3)c(C)c2c1C", "max response, negative = inhibition": "inactive: -0.819%"}
{"smiles": "CCn1cc(CNC(=S)Nc2cccc3ccccc23)cn1", "max response, negative = inhibition": "inactive: -12.1%"}
{"smiles": "COc1ccc(OCC(=O)Nc2ccc(N3CCCCC3)cc2)cc1", "Potency": "inconclusive: 26.7 µM [inhibitor, partial curve]"}
{"smiles": "Oc1ccccc1/C=N/n1c(-c2cccs2)n[nH]c1=S", "Potency": "inconclusive: 23.8 µM [inhibitor, single point]"}
